Source: patent publication US20260232707A1, “METABOLIC INHIBITORS AND METHODS OF MAKING AND USING THEREOF” (UNIVERSITY OF MIAMI, priority 2023, published 2026)
Some results were stated once for a whole list of compounds, not compound by compound. For at least one compound, name, drawing or mass did not settle the structure.

Test: Stability at different pH values by HPLC and LC-MS (Example 1)
Format: physicochemical
Settings: pH 7.4, after 12 h, DMF-water (2/1, v/v), room temperature
Protocol: FIGS. 2A-2B. Stability of Mito-SilylDCA at different pH values. Traces of HPLC plots of (FIG. 2A) Mito-SilylDCA and (FIG. 2B) Mito-DCA in solutions of different pH values along with plots of percent of the compound remained with time. A solution of Mito-SilylDCA or Mito-DCA in DMF-water (2/1, v/v) was incubated for different times (12 h, 24 h, and 48 h) at different pH environments (4.0, 7.4, and 9.5) at room temperature.
Stability of Mito-SilylDCA. A combination of HPLC and LC-MS analytical techniques were employed to understand the stability of Mito-SilylDCA in different physiological environments. A solution of Mito-SilylDCA or Mito-DCA in DMF-water (2/1, v/v) was incubated for 12, 24, and 48 h at different pH environments of 4.0, 7.4, and 9.5 at room temperature and the degradation behavior of the compounds was analyzed with HPLC and LC-MS (FIGS. 2A and 2B). […] After 12 h, more than 60% of compounds are decomposed at pH 7.4, which should be due to the hydrolysis of DCA and the silyl chain. […] Both Mito-DCA and Mito-SilylDCA were unstable in alkaline conditions and the compounds decomposed easily. […] The better stability of Mito-SilylDCA compared to Mito-DCA would be beneficial for the long-term storage and further application in biological environment.

Row | SMILES | compounds decomposed
1 | O=C(CCCCC[P+](c1ccccc1)(c1ccccc1)c1ccccc1)NC(COC(=O)C(Cl)Cl)(COC(=O)C(Cl)Cl)COC(=O)C(Cl)Cl [Mito-DCA, reference compound] | more than 60%
2 | CCCCCCCCCCCCCCCCCC[Si](C)(C)OCC(COC(=O)C(Cl)Cl)(COC(=O)C(Cl)Cl)NC(=O)CCCCC[P+](c1ccccc1)(c1ccccc1)c1ccccc1 [Mito-SilylDCA] | more than 60%
